Measurements reported in PubChem BioAssay AID504744 (Drosophila RNAi Screening Center, 2011)
Screen: 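Identify dsRNAs that increase or decrease phospho-dAkt after insulin treatment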 (primary screen). Cells: Drosophila Kc167 cells. Reagents: long dsRNA against Drosophila genes, 250 ng dsRNA per well of a 384-well plate. Time to read-out: 3 days of knock-down, then overnight serum-free starvation before stimulation. Treatment: bovine insulin at 387 nM for 10 minutes after 12 h without serum. Detection: 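In-cell antibody fluorescence for phospho-dAkt in each well over DNA-dye signal, with log2 residuals expressed as z-scores adjusted for cell count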. Hit rule: 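Under insulin, a gene counts as a hit if the average z-score of two replicates lies above 2.5 or below -2.5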.
The deposit covers about 23,000 reagents; shown is a random part of those that have a named target and a result. Over the whole deposit, 98 (0.43%) were called active. 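Only hit calls are given; the phospho-dAkt signals, z-scores and hit direction were not deposited.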 A plus sign joins genes that one reagent is predicted to hit. Reagent sequences are not shown.

target	DRSC id	activity call
Nuak	DRSC14414	inactive
Nuak	DRSC14415	inactive
Nuak	DRSC14416	inactive
Ranbp21	DRSC19447	inactive
CG15221	DRSC19659	inactive
CG31668	DRSC22584	inactive
CG15649	DRSC04240	inactive
CG3280 (retired record)	DRSC10356	inactive
side-VII	DRSC14578	inactive
Pits	DRSC19385	inactive
Pits	DRSC19812	inactive
Ubx	DRSC16891	inactive
CG5404	DRSC15793	inactive
Rab9Db + Rab9D + Rab9E	DRSC17656	inactive
lost	DRSC12002	inactive
lost	DRSC12234	inactive
lost	DRSC21987	inactive
CG18788	DRSC02697	inactive
CG12865 (retired record)	DRSC06205	inactive
Vps20	DRSC04448	inactive
slf	DRSC00583	inactive
CG7453	DRSC20046	inactive
Dcp-1	DRSC04609	inactive
sds22	DRSC17052	inactive
CG13029	DRSC09909	inactive
CG15115	DRSC06537	inactive
CtBP	DRSC16617	inactive
CG5065	DRSC06912	inactive
CG34451	DRSC09388	inactive
CG34451	DRSC09389	inactive
jdp	DRSC16975	inactive
CG14615	DRSC20627	inactive
CG11811	DRSC09862	inactive
CG43328	DRSC05640	inactive
Qtzl	DRSC01221	inactive
CG13384	DRSC02258	inactive
RpL26	DRSC10726	inactive
AOX3	DRSC15955	inactive
twr	DRSC12491	inactive
CG8569	DRSC07214	inactive
CG34249 (retired record)	DRSC09431	inactive
Tudor-SN	DRSC08581	inactive
CG4269	DRSC04457	inactive
Pif1A + Pif1B	DRSC14142	inactive
Pif1A + Pif1B	DRSC14380	inactive
Pif1A + Pif1B	DRSC14381	inactive
Gr59a	DRSC21550	inactive
CG32544	DRSC20033	inactive
CG15249	DRSC17978	inactive
mRpL32	DRSC14479	inactive
beta-PheRS	DRSC15859	inactive
CG16762	DRSC08493	inactive
CG9044	DRSC03130	inactive
Reph	DRSC00634	inactive
Reph	DRSC22031	inactive
bcd + CR14578	DRSC20984	inactive
zormin	DRSC07969	inactive
zormin	DRSC08210	inactive
zormin	DRSC08212	inactive
zormin	DRSC08213	inactive
zormin	DRSC08297	inactive
zormin	DRSC08571	inactive
zormin	DRSC22483	inactive
Non1	DRSC05954	inactive
Evi5	DRSC19421	inactive
MFS1	DRSC04115	inactive
CG8586	DRSC07218	inactive
CG9555	DRSC03264	inactive
CG12241	DRSC14481	inactive
CG34006 (retired record)	DRSC13817	inactive
Spn42Db	DRSC05009	inactive
Myo95E	DRSC15821	inactive
CG9101	DRSC20152	inactive
alpha-Est4	DRSC12616	inactive
fred	DRSC00349	inactive
fred	DRSC00599	inactive
fred	DRSC00601	inactive
fred	DRSC00602	inactive
fred	DRSC21906	inactive
CG15011	DRSC08464	inactive
Delta	DRSC16648	inactive
oaf	DRSC00831	inactive
Rbbp5	DRSC11778	inactive
e(r)	DRSC18768	inactive
Gpb5	DRSC21241	inactive
CG8229 + CG33199	DRSC05134	inactive
raskol	DRSC19202	inactive
raskol	DRSC19731	inactive
raskol	DRSC19964	inactive
raskol	DRSC19967	inactive
raskol	DRSC21788	inactive
CG16798	DRSC02517	inactive
CG17283	DRSC15219	inactive
CG4982	DRSC10465	inactive
Dys	DRSC13360	inactive
Dys	DRSC13364	inactive
Dys	DRSC15260	inactive
Dys	DRSC16218	inactive
Dys	DRSC16219	inactive
Dys	DRSC16220	inactive
Dys	DRSC16935	inactive
Spase25	DRSC19776	inactive
Kebab	DRSC00827	inactive
CG5623	DRSC15848	inactive
CG42500	DRSC14822	inactive
CycA	DRSC09132	inactive
CycA	DRSC11123	inactive
Alp6	DRSC06710	inactive
DIP1	DRSC20818	inactive
lectin-29Ca	DRSC02635	inactive
Impbeta11	DRSC07525	inactive
Cpr67Fa1	DRSC10932	inactive
CG17029	DRSC10240	inactive
zf30C	DRSC03641	inactive
barc	DRSC11792	inactive
wry	DRSC00352	inactive
wry	DRSC00456	inactive
wry	DRSC22414	inactive
ninaD	DRSC02886	inactive
CG5196	DRSC15735	inactive
Inx2	DRSC18783	inactive
Naxd	DRSC09722	inactive

Part of the list above, reformatted:
| target | DRSC id | activity call |
| --- | --- | --- |
| Delta | DRSC16648 | inactive |
| oaf | DRSC00831 | inactive |
| Rbbp5 | DRSC11778 | inactive |
| e(r) | DRSC18768 | inactive |
| Gpb5 | DRSC21241 | inactive |
| CG8229 + CG33199 | DRSC05134 | inactive |
| raskol | DRSC19202 | inactive |
| raskol | DRSC19731 | inactive |
| raskol | DRSC19964 | inactive |
| raskol | DRSC19967 | inactive |
| raskol | DRSC21788 | inactive |
| CG16798 | DRSC02517 | inactive |
| CG17283 | DRSC15219 | inactive |
| CG4982 | DRSC10465 | inactive |
| Dys | DRSC13360 | inactive |
| Dys | DRSC13364 | inactive |
| Dys | DRSC15260 | inactive |
| Dys | DRSC16218 | inactive |
| Dys | DRSC16219 | inactive |
| Dys | DRSC16220 | inactive |
| Dys | DRSC16935 | inactive |
| Spase25 | DRSC19776 | inactive |
| Kebab | DRSC00827 | inactive |
| CG5623 | DRSC15848 | inactive |
| CG42500 | DRSC14822 | inactive |
| CycA | DRSC09132 | inactive |
| CycA | DRSC11123 | inactive |
| Alp6 | DRSC06710 | inactive |

More reagents follow.
target	DRSC id	activity call
Pten	DRSC03402	inactive
Csas	DRSC22390	inactive
teq	DRSC10298	inactive
teq	DRSC11301	inactive
teq	DRSC11302	inactive
Ugt37C1	DRSC07416	inactive
CG10749	DRSC09798	inactive
CG3906	DRSC04431	inactive
spas	DRSC15929	inactive
Nulp1	DRSC09677	inactive
Vinc	DRSC18728	inactive
Act88F	DRSC14105	inactive
Wnk	DRSC11813	inactive
CG5810	DRSC15880	inactive
CG5810	DRSC21921	inactive
CG14860	DRSC14983	inactive
CG11504	DRSC14318	inactive
alpha4GT1	DRSC00488	inactive
GstD9	DRSC14185	inactive
CG42246	DRSC17520	inactive
mub	DRSC11896	inactive
ImpE3	DRSC16716	inactive
nop5	DRSC03582	inactive
CG7049	DRSC08587	inactive
Osi21	DRSC02408	inactive
Cse1	DRSC03287	inactive
BG642163	DRSC00342	inactive
BG642163	DRSC00343	inactive
Tcs3	DRSC10461	inactive
Obp47b + CG7741	DRSC06330	inactive
DIP-zeta	DRSC02203	inactive
DIP-zeta	DRSC02204	inactive
DIP-zeta	DRSC02205	inactive
CG11593	DRSC08206	inactive
Ufsp1	DRSC04958	inactive
CG31441	DRSC15723	inactive
CG14500	DRSC06471	inactive
CG5953	DRSC01546	inactive
CG5953	DRSC02914	inactive
Vha14-2	DRSC12145	inactive
CG4496	DRSC02753	inactive
CG14696	DRSC14919	inactive
drl	DRSC03523	inactive
fu	DRSC20333	inactive
fd59A	DRSC04685	inactive
whe	DRSC20537	inactive
CG34224	DRSC05269	inactive
RASSF8	DRSC15707	inactive
CG5906	DRSC10557	inactive
CG34292	DRSC13807	inactive
sstn	DRSC10753	inactive
CG3603	DRSC18317	inactive
CG42561	DRSC05676	inactive
CG34353	DRSC14493	inactive
CG34353	DRSC14517	inactive
CG34353	DRSC14563	inactive
CG34353	DRSC15837	inactive
CG34353	DRSC22429	inactive
wwk	DRSC01941	inactive
CAH6	DRSC15505	inactive
CG18823	DRSC18168	inactive
atlas	DRSC04183	inactive
CG34355	DRSC13639	inactive
CG34355	DRSC14520	inactive
CG34355	DRSC14668	inactive
CG34355	DRSC21687	inactive
Klp54D	DRSC07450	inactive
dpr10	DRSC09015	inactive
dpr10	DRSC09018	inactive
dpr10	DRSC10159	inactive
dpr10	DRSC10160	inactive
CG9853	DRSC12343	inactive
CG9853	DRSC22840	inactive
GalT1	DRSC22238	inactive
Spn42Da	DRSC05025	inactive
GIIIspla2	DRSC18094	inactive
Sec23	DRSC12387	active
pigeon	DRSC03565	inactive
